# Experimental data reported in the supplement of paper PMC8732350.
# Where a name gives a salt, the structure may show the parent alone. ± gives the standard deviation of the averaged measurements. Some of the results follow. Repeats in this data set agree poorly, so a single value says little.
# Test system: A549
# Assay: surface PD-L1 immunofluorescence intensity relative to IFN-gamma-only control (ratio); higher = more PD-L1 expression
# Details: 10 µM; exposure time 24 h; IFN-gamma 100 ng/mL
row,Structure (SMILES),surface PD-L1 immunofluorescence intensity
1,OC(CCN1CCCCC1)(c1ccccc1)C1CC2C=CC1C2 (centres undefined) [Biperiden hydrochloride],0.996
2,OC(CCN1CCCCC1)(c1ccccc1)C1CC2C=CC1C2 (centres undefined) [Biperiden HCl],1.02
3,Cc1ncc([N+](=O)[O-])n1CCO [Metronidazole],0.863
4,CCN(CC)CC#CCOC(=O)C(O)(c1ccccc1)C1CCCCC1 (centres undefined) [Oxybutynin chloride],0.867
5,CN1C2CCCC1CC(NC(=O)c1nn(C)c3ccccc13)C2 (centres undefined) [Granisetron],1.11
6,CN1C2CCCC1CC(NC(=O)c1nn(C)c3ccccc13)C2 (centres undefined) [Granisetron HCl],0.983
7,CC(C)N1CCN(c2ccc(OCC3COC(Cn4cncn4)(c4ccc(Cl)cc4Cl)O3)cc2)CC1 (centres undefined) [Terconazole],1.06
8,C=CC[C@@H]1/C=C(\C)C[C@H](C)C[C@H](OC)[C@H]2O[C@@](O)(C(=O)C(=O)N3CCCC[C@H]3C(=O)O[C@H](/C(C)=C/[C@@H]3CC[C@@H](O)[C@H](OC)C3)[C@H](C)[C@@H](O)CC1=O)[C@H](C)C[C@@H]2OC [FK-506 (Tacrolimus)],0.976
9,Cc1ccc(C(=O)c2cc(O)c(O)c([N+](=O)[O-])c2)cc1 [Tolcapone],0.944
10,NC[C@H]1O[C@H](O[C@H]2[C@H](O[C@@H]3O[C@H](CO)[C@@H](O)[C@H]3O)[C@@H](O)[C@H](N)C[C@@H]2N)[C@H](N)[C@@H](O)[C@@H]1O [Ribostamycin sulfate salt],1
11,COc1ccc2[nH]cc(CCNC(C)=O)c2c1 [Melatonin],1.03 ± 0.054
12,COc1ccc(COc2ccc(Cc3cnc(N)nc3N)cc2OC)cc1,1.09
13,Cc1cc([N+](=O)[O-])ccc1NS(=O)(=O)c1cc(Cl)ccc1Cl,0.918
14,COc1ccc(C(=O)NCc2cccnc2)cc1C(=O)NCc1cccnc1 [Picotamide monohydrate],0.95
15,Cc1c(C(=O)N(C)C2CCCCC2)sc2nc3ccc(N)cc3n12,1.24
16,O=c1c(O)cccc2cc(O)c(O)c(O)c12 [Purpurogallin],0.98
17,Cc1ccc(S(=O)(=O)NC(=O)NN2CC3CCCC3C2)cc1 (centres undefined) [Gliclazide],0.968
18,CC(=O)N[C@@H](CC(=O)N[C@@H](CCC(=O)O)C(=O)O)C(=O)O [Spaglumic acid],1.03 ± 0.057
19,c1ccc(C(NCCNC(c2ccccc2)c2ccccc2)c2ccccc2)cc1 [AMN 082 dihydrochloride],0.934
20,O=c1c(O)c(-c2cc(O)c(O)c(O)c2)oc2cc(O)cc(O)c12 [Myricetin (Cannabiscetin)],1.08
21,Cc1cc(Cn2cnc3c2CC(C(=O)O)N(C(=O)C(c2ccccc2)c2ccccc2)C3)ccc1N(C)C (centres undefined),0.938
22,CCN(CC)CCOc1ccc(Cc2ccccc2)cc1 [DPPE fumarate],1.14
23,CCn1cc(C(=O)O)c(=O)c2cnc(N3CCNCC3)nc21 [Pipemidic acid],1.07
24,NCCS(=O)(=O)O [Taurine],1.09
25,N#CC(C#N)=C(N)/C(C#N)=C/c1ccc(O)cc1,1.04
26,CCCC[C@@H](C=O)NC(=O)[C@H](CC(C)C)NC(=O)OCc1ccccc1 [Calpeptin],0.935 ± 0.14
27,Cc1ccc(NC(=O)c2ccc(CN3CCN(C)CC3)cc2)cc1Nc1nc(-c2cccnc2)cs1 [Masitinib (AB1010)],0.876

# Taken from above.
# CC(=O)N[C@@H](CC(=O)N[C@@H](CCC(=O)O)C(=O)O)C(=O)O [Spaglumic acid] – surface PD-L1 immunofluorescence intensity: 1.03 ± 0.057
# C=CC[C@@H]1/C=C(\C)C[C@H](C)C[C@H](OC)[C@H]2O[C@@](O)(C(=O)C(=O)N3CCCC[C@H]3C(=O)O[C@H](/C(C)=C/[C@@H]3CC[C@@H](O)[C@H](OC)C3)[C@H](C)[C@@H](O)CC1=O)[C@H](C)C[C@@H]2OC [FK-506 (Tacrolimus)] – surface PD-L1 immunofluorescence intensity: 0.976
# NC[C@H]1O[C@H](O[C@H]2[C@H](O[C@@H]3O[C@H](CO)[C@@H](O)[C@H]3O)[C@@H](O)[C@H](N)C[C@@H]2N)[C@H](N)[C@@H](O)[C@@H]1O [Ribostamycin sulfate salt] – surface PD-L1 immunofluorescence intensity: 1
# CCn1cc(C(=O)O)c(=O)c2cnc(N3CCNCC3)nc21 [Pipemidic acid] – surface PD-L1 immunofluorescence intensity: 1.07
# Cc1ccc(C(=O)c2cc(O)c(O)c([N+](=O)[O-])c2)cc1 [Tolcapone] – surface PD-L1 immunofluorescence intensity: 0.944

# (next part)

row,Structure (SMILES),surface PD-L1 immunofluorescence intensity
1,COc1nc(C)nc(Cl)c1NC1=NCCN1 [Moxonidine],1
2,COc1nc(C)nc(Cl)c1NC1=NCCN1 [Moxonidine hydrochloride],0.958
3,CCN(CC)CCNC(=O)c1cc(S(C)(=O)=O)ccc1OC [Tiapride hydrochloride],0.972
4,O=C(CCCN1CC=C(n2c(=O)[nH]c3ccccc32)CC1)c1ccc(F)cc1 [Droperidol],1
5,Cc1nc2c(c(=O)[nH]1)CSCC2,0.939
6,CCCCCCCC/C=C\CCCCCCCC(=O)N[C@@H](CO)Cc1ccc(O)cc1,1.04
7,C#CCN(C)Cc1ccccc1 [Pargyline hydrochloride],0.993
8,COc1ccc2cc(CCC(C)=O)ccc2c1 [Nabumetone],1.05
9,Cc1cccc(/C=C/c2ccccc2)n1,1.01
10,CCn1cc(C(=O)O)c(=O)c2ccc(C)nc21 [Nalidixic acid sodium salt],1.09
11,COc1ccc(-c2oc3c(CC=C(C)C)c(O[C@@H]4O[C@H](CO)[C@@H](O)[C@H](O)[C@H]4O)cc(O)c3c(=O)c2O[C@@H]2O[C@@H](C)[C@H](O)[C@@H](O)[C@H]2O)cc1 [Icariin],1.01
12,Cc1cc(C)cc(C(=O)N(C)[C@H](Cc2ccc(-c3ccccc3)cc2)C(=O)N[C@@H](Cc2c[nH]c3ccccc23)C(=O)O)c1,0.986
13,Nc1ccc(S(=O)(=O)c2ccc(N)cc2)cc1 [Dapsone],0.867
14,OCCN1CCN(CCCN2c3ccccc3Sc3ccc(Cl)cc32)CC1 [Perphenazine],0.894
15,CN(C)CCc1c[nH]c2ccc(Cn3cncn3)cc12 [Rizatriptan Benzoate (Maxalt)],1.06
16,CC1(C)OC(=O)NC1=O [Dimethadione],1.01
17,N=C(N)NCC1COC2(CCCCC2)O1 (centres undefined) [Guanadrel sulfate],0.985
18,N[C@@H](C(=O)O)c1ccc(C(=O)O)c(C(=O)O)c1,1.04
19,Fc1ccc(-c2nc3n(c2-c2ccncc2)CCS3)cc1,0.868
20,CCC[C@H](N[C@@H](C)C(=O)N1[C@H](C(=O)O)C[C@@H]2CCCC[C@@H]21)C(=O)OCC [Perindopril Erbumine (Aceon)],0.936
21,CCC[C@H](N[C@@H](C)C(=O)N1[C@H](C(=O)O)C[C@@H]2CCCC[C@@H]21)C(=O)OCC [Perindopril],1.01
22,Nc1ccc(C(=O)NCC(=O)O)cc1 [Aminohippuric acid],1.06
23,COc1ccc(NS(=O)(=O)c2ccc(N)cc2)nn1 [Sulfamethoxypyridazine],1.03
24,NC(C(=O)O)c1cc(O)cc(O)c1 (racemic),1.1
25,CC(=O)Oc1cccc2c1C(=O)c1c(OC(C)=O)cc(C(=O)O)cc1C2=O [Diacerein],1.13
26,"O=c1oc(Cl)c(Cl)c2ccccc12 [3,4-Dichloroisocoumarin]",1.14
27,N[C@H]1C(O)O[C@H](CO)[C@@H](O)[C@@H]1O (some centres undefined) [Glucosamine HCl],1.01

row,Structure (SMILES),surface PD-L1 immunofluorescence intensity
1,C=C1C[C@H]2[C@@H]3C=C(C)C4=CC(=O)CC[C@]4(C)[C@H]3CC[C@]2(C)[C@@]1(OC(C)=O)C(C)=O [Melengestrol acetate],0.884
2,CC1=CC(=O)NS(=O)(=O)O1 [Acesulfame Potassium],1.04
3,CCCC(=O)Nc1ncnc2c1ncn2[C@@H]1O[C@@H]2COP(=O)(O)O[C@H]2[C@H]1OC(=O)CCC [Bucladesine sodium salt],0.974
4,"CCCC(=O)Nc1ncnc2c1ncn2[C@@H]1O[C@@H]2COP(=O)(O)O[C@H]2[C@H]1OC(=O)CCC [Dibutyryl-cAMP, sodium salt]",0.954
5,CN(C)CCC[C@@]1(c2ccc(F)cc2)OCc2cc(C#N)ccc21 [Escitalopram],0.923
6,CN1CCCC(n2nc(Cc3ccc(Cl)cc3)c3ccccc3c2=O)CC1 (centres undefined) [Azelastine HCl],1.09
7,O=c1oc(-c2ccc(C(F)(F)F)cc2)nn1Cc1cc(Cl)ccc1O,0.92
8,COc1ccc(S(=O)(=O)N2c3ccc(Cl)cc3[C@](O)(c3ccccc3Cl)[C@@H]2C(=O)N2CCC[C@H]2C(N)=O)cc1OC,1.01
9,CN1CCCCC1CCN1c2ccccc2Sc2ccc([S+](C)[O-])cc21 (centres undefined) [Mesoridazine besylate],0.976
10,O=S(=O)(c1ccccc1)c1cnc2c(N3CCNCC3)cccc2c1,0.981
11,Cc1c(C(=O)NC2CCCCC2)sc2nc3ccc(N)cc3n12,1.05
12,O=C(O[C@H]1CN2CCC1CC2)N1CCc2ccccc2[C@@H]1c1ccccc1 [Solifenacin succinate],0.997
13,NC(=O)N/N=C/c1ccc([N+](=O)[O-])o1 [Nitrofural],1.04
14,"Nc1nc2c(nc(Br)n2[C@@H]2O[C@@H]3COP(=O)(O)O[C@H]3[C@H]2O)c(=O)[nH]1 [8-Bromo-cGMP, sodium salt]",0.974
15,CO[C@@H]1[C@@H](OC(N)=O)[C@@H](O)[C@H](Oc2ccc3c(O)c(NC(=O)c4ccc(O)c(CC=C(C)C)c4)c(=O)oc3c2C)OC1(C)C [Novobiocin sodium salt],0.898
16,CCN1CCN(C(=O)N[C@@H](C(=O)N[C@@H]2C(=O)N3[C@@H]2SC(C)(C)[C@@H]3C(=O)O)c2ccccc2)C(=O)C1=O [Piperacillin sodium salt],0.953
17,CC(C)NCCN(C(C)C)S(=O)(=O)c1ccc(Cl)cc1Cl,0.981
18,FC(F)(F)c1ccc(/C=C/c2nc(COc3ccc(CCCCn4ccnn4)cc3)co2)cc1 [Mubritinib (TAK 165)],1.06
19,O=C1c2c(O)cc(O)cc2OC(c2ccc(O)c(O)c2)C1O (centres undefined) [Taxifolin (Dihydroquercetin)],0.883
20,COc1ccc(Nc2nccc(NCCO)n2)cc1 [Cardiogenol C hydrochloride],0.956
21,CN(C)CCCOc1nn(Cc2ccccc2)c2ccccc12 [Benzydamine hydrochloride],1.01
22,C#C[C@]1(O)CC[C@H]2[C@@H]3[C@H](C)CC4=C(CCC(=O)C4)[C@H]3CC[C@@]21C [Tibolone],0.906
23,Cn1cc(C(=O)OCC2CCN(CCNS(C)(=O)=O)CC2)c2ccccc21,0.982
24,OC[C@@H](O)[C@@H](O)[C@H](O)[C@@H](O)CO [Sorbitol (Glucitol)],0.832
25,CCCCC(=O)O[C@]1(C(=O)CO)[C@@H](C)C[C@H]2[C@@H]3CCC4=CC(=O)C=C[C@]4(C)[C@@]3(F)[C@@H](O)C[C@@]21C [Betamethasone valerate (Betnovate)],0.839
